# Assay results as given in PubChem BioAssay AID2451 (National Center for Advancing Translational Sciences (NCATS), 2010).
# Amino acid sequences for entries named in this document (tags omitted).
# UniProt A8B2U2, whole entry: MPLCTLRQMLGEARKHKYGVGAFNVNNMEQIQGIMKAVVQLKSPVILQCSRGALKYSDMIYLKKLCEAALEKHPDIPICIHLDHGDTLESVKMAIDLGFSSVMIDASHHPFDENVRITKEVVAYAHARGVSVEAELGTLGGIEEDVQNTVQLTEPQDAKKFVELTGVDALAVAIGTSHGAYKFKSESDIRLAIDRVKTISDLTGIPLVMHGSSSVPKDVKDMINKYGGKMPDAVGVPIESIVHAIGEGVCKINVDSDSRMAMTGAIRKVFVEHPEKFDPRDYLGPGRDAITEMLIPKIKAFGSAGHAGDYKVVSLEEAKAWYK
# Out of some 290,000 compounds screened, about 2,100 (0.72%) were called active. These results got no clear call from the source, so the numbers are uncertain. Calls follow the shape of the dose curve; as a rule, active = well fitted inhibition curve with a large enough effect; inconclusive = small, poorly fitted or top-dose-only effect, or effect the other way; inactive = flat fitted curve, though single readings scatter.
# Target: Fructose-bisphosphate aldolase (Giardia intestinalis (strain ATCC 50803 / WB clone C6)) (UniProt A8B2U2)
# Experiment: qHTS Assay for Inhibitors of Fructose-1,6-bisphosphate Aldolase from Giardia Lamblia; also: nearly all actives have a fitted effect of over 55% in size
# Conditions: purified Giardia FBPA
# Potency is read from the fitted curve at half-maximal effect.
row,Compound,Potency
1,CN(C)C(=O)c1c([N+](=O)[O-])cc([N+](=O)[O-])cc1[N+](=O)[O-],inconclusive: 2.81 µM
2,Cc1nc2ccc3ccccc3c2o1.O=[N+]([O-])c1cc([N+](=O)[O-])c(O)c([N+](=O)[O-])c1,inconclusive: 7.06 µM
3,O=[N+]([O-])c1ccc2c(c1)C=Nc1ccccc1O2,inconclusive: 22.3 µM
4,Cc1nc2ccc3ccccc3c2s1.O=[N+]([O-])c1cc([N+](=O)[O-])c(O)c([N+](=O)[O-])c1,inconclusive: 31.5 µM
